One assay has as its target Tm-2^2 (D481V) (tomato) (UniProt Q71BG9). As to the kind of experiment: co-IP; Myc- and HA-tagged copies of full-length Tm-2^2 (or D481V) co-expressed WITHOUT TMV MP in N. benthamiana; IP with anti-Myc beads; blot anti-HA.
Another assay has as its target Tm-2^2 (L233A) (tomato) (UniProt Q71BG9). As to the kind of experiment: co-IP; Myc- and HA-tagged copies of full-length Tm-2^2 (or mutant) co-expressed WITH TMV MP-YFP (GenBank BAF93925.1) in N. benthamiana; leaves collected at 22-24 hpi; IP with anti-Myc beads, 3 h at 4°C, IP buffer 25 mM Tris-HCl pH 7.5, 150 mM NaCl, 1 mM EDTA, 10% glycerol, 10 mM DTT, 0.2-0.5% NP-40; blot anti-HA.

A further assay has as its target Tm-2^2 (L242A) (tomato) (UniProt Q71BG9). The assay is described as above.
For assay [1], the target named is Tm-2^2 CC-NB-ARC (D481V, L246A)-Rop (tomato) (UniProt Q71BG9). In words: co-IP; Myc-Rop and YFP-Rop tagged (plasma-membrane tethered) copies co-expressed in pair in N. benthamiana; IP with anti-GFP beads; blot anti-Myc.
Assay [2] concerns the target Tm-2^2 NB-ARC (D481V) (tomato) (UniProt Q71BG9). In words: co-IP; isolated domains with HA or Myc tag co-expressed in N. benthamiana, no MP; IP with anti-Myc beads; blot anti-HA.
Assay [3] deals with Tm-2^2 NB-ARC (D481V, L233A) (tomato) (UniProt Q71BG9). The description is as above.
Assay [4] has as its target Tm-2^2 NB-ARC (D481V, L246A) (tomato) (UniProt Q71BG9). Described as above.
Assay [5] addresses Tm-2^2 NB-ARC (D481V, L242A) (tomato) (UniProt Q71BG9). The assay is described as above.

Results are given in words; binding and its absence hold for the method and conditions named. In cells and extracts the contact can be indirect. Some entries that bind do so weakly or less than the wild type.

B1: Tm-2^2 (D481V) (receptor, UniProt Q71BG9 1-861)
chain: MAEILLTSVINKSVEIAGNLLIQEGKRLYWLKEDIDWLQREMRHIRSYVDNAKAKEAGGDSRVKNLLKDIQELAGDVEDLLDDFLPKIQQSNKFNYCLKRSSFADEFAMEIEKIKRRVVDIDRIRKTYNIIDTDNNNDDCVLLDRRRLFLHADETEIIGLDDDFNMLQAKLLNQDLHYGVVSIVGMPGLGKTTLAKKLYRLIRDQFECSGLVYVSQQPRASEILLDIAKQIGLTEQKMKENLEDNLRSLLKIKRYVILLDDIWDVEIWDDLKLVLPECDSKVGSRMIITSRNSNVGRYIGGESSLHALQPLESEKSFELFTKKIFNFDDNNSWANASPDLVNIGRNIVGRCGGIPLAIVVTAGMLRARERTEHAWNRVLESMGHKVQDGCAKVLALSYNDLPIASRPCFLYFGLYPEDHEIRAFDLINMWIAEKFIVVNSGNRREAEDLAEDVLNDLVSRNLIQLAKRTYNGRISSCRIHVLLHSLCVDLAKESNFFHTAHDAFGDPGNVARLRRITFYSDNVMIEFFRSNPKLEKLRVLFCFAKDPSIFSHMAYFDFKLLHTLVVVMSQSFQAYVTIPSKFGNMTCLRYLRLEGNICGKLPNSIVKLTRLETIDIDRRSLIQPPSGVWESKHLRHLCYRDYGQACNSCFSISSFYPNIYSLHPNNLQTLMWIPDKFFEPRLLHRLINLRKLGILGVSNSTVKMLSIFSPVLKALEVLKLSFSSDPSEQIKLSSYPHIAKLHLNVNRTMALNSQSFPPNLIKLTLAYFSVDRYILAVLKTFPKLRKLKMFICKYNEEKMDLSGEANGYSFPQLEVLHIHSPNGLSEVTCTDDVSMPKLKKLLLTGFHCRISLSERLKKLSK
As to B1, in the assay with Tm-2^2 (D481V) (tomato), the binding entry is reported as “binds”.

B2: Tm-2^2 (L233A) (receptor, UniProt Q71BG9 1-861)
chain: MAEILLTSVINKSVEIAGNLLIQEGKRLYWLKEDIDWLQREMRHIRSYVDNAKAKEAGGDSRVKNLLKDIQELAGDVEDLLDDFLPKIQQSNKFNYCLKRSSFADEFAMEIEKIKRRVVDIDRIRKTYNIIDTDNNNDDCVLLDRRRLFLHADETEIIGLDDDFNMLQAKLLNQDLHYGVVSIVGMPGLGKTTLAKKLYRLIRDQFECSGLVYVSQQPRASEILLDIAKQIGATEQKMKENLEDNLRSLLKIKRYVILLDDIWDVEIWDDLKLVLPECDSKVGSRMIITSRNSNVGRYIGGESSLHALQPLESEKSFELFTKKIFNFDDNNSWANASPDLVNIGRNIVGRCGGIPLAIVVTAGMLRARERTEHAWNRVLESMGHKVQDGCAKVLALSYNDLPIASRPCFLYFGLYPEDHEIRAFDLINMWIAEKFIVVNSGNRREAEDLAEDVLNDLVSRNLIQLAKRTYNGRISSCRIHDLLHSLCVDLAKESNFFHTAHDAFGDPGNVARLRRITFYSDNVMIEFFRSNPKLEKLRVLFCFAKDPSIFSHMAYFDFKLLHTLVVVMSQSFQAYVTIPSKFGNMTCLRYLRLEGNICGKLPNSIVKLTRLETIDIDRRSLIQPPSGVWESKHLRHLCYRDYGQACNSCFSISSFYPNIYSLHPNNLQTLMWIPDKFFEPRLLHRLINLRKLGILGVSNSTVKMLSIFSPVLKALEVLKLSFSSDPSEQIKLSSYPHIAKLHLNVNRTMALNSQSFPPNLIKLTLAYFSVDRYILAVLKTFPKLRKLKMFICKYNEEKMDLSGEANGYSFPQLEVLHIHSPNGLSEVTCTDDVSMPKLKKLLLTGFHCRISLSERLKKLSK
In the case of B2, the binding entry in the assay with Tm-2^2 (L233A) (tomato) is on record as “binds”.

B3: Tm-2^2 (L242A) (receptor, UniProt Q71BG9 1-861)
chain: MAEILLTSVINKSVEIAGNLLIQEGKRLYWLKEDIDWLQREMRHIRSYVDNAKAKEAGGDSRVKNLLKDIQELAGDVEDLLDDFLPKIQQSNKFNYCLKRSSFADEFAMEIEKIKRRVVDIDRIRKTYNIIDTDNNNDDCVLLDRRRLFLHADETEIIGLDDDFNMLQAKLLNQDLHYGVVSIVGMPGLGKTTLAKKLYRLIRDQFECSGLVYVSQQPRASEILLDIAKQIGLTEQKMKENAEDNLRSLLKIKRYVILLDDIWDVEIWDDLKLVLPECDSKVGSRMIITSRNSNVGRYIGGESSLHALQPLESEKSFELFTKKIFNFDDNNSWANASPDLVNIGRNIVGRCGGIPLAIVVTAGMLRARERTEHAWNRVLESMGHKVQDGCAKVLALSYNDLPIASRPCFLYFGLYPEDHEIRAFDLINMWIAEKFIVVNSGNRREAEDLAEDVLNDLVSRNLIQLAKRTYNGRISSCRIHDLLHSLCVDLAKESNFFHTAHDAFGDPGNVARLRRITFYSDNVMIEFFRSNPKLEKLRVLFCFAKDPSIFSHMAYFDFKLLHTLVVVMSQSFQAYVTIPSKFGNMTCLRYLRLEGNICGKLPNSIVKLTRLETIDIDRRSLIQPPSGVWESKHLRHLCYRDYGQACNSCFSISSFYPNIYSLHPNNLQTLMWIPDKFFEPRLLHRLINLRKLGILGVSNSTVKMLSIFSPVLKALEVLKLSFSSDPSEQIKLSSYPHIAKLHLNVNRTMALNSQSFPPNLIKLTLAYFSVDRYILAVLKTFPKLRKLKMFICKYNEEKMDLSGEANGYSFPQLEVLHIHSPNGLSEVTCTDDVSMPKLKKLLLTGFHCRISLSERLKKLSK
B3: in the assay with Tm-2^2 (L242A) (tomato), the binding entry is given as “binds”.

B4: Tm-2^2 CC-NB-ARC (D481V, L246A)-Rop (domain or fragment, UniProt Q71BG9 1-492)
chain: MAEILLTSVINKSVEIAGNLLIQEGKRLYWLKEDIDWLQREMRHIRSYVDNAKAKEAGGDSRVKNLLKDIQELAGDVEDLLDDFLPKIQQSNKFNYCLKRSSFADEFAMEIEKIKRRVVDIDRIRKTYNIIDTDNNNDDCVLLDRRRLFLHADETEIIGLDDDFNMLQAKLLNQDLHYGVVSIVGMPGLGKTTLAKKLYRLIRDQFECSGLVYVSQQPRASEILLDIAKQIGLTEQKMKENLEDNARSLLKIKRYVILLDDIWDVEIWDDLKLVLPECDSKVGSRMIITSRNSNVGRYIGGESSLHALQPLESEKSFELFTKKIFNFDDNNSWANASPDLVNIGRNIVGRCGGIPLAIVVTAGMLRARERTEHAWNRVLESMGHKVQDGCAKVLALSYNDLPIASRPCFLYFGLYPEDHEIRAFDLINMWIAEKFIVVNSGNRREAEDLAEDVLNDLVSRNLIQLAKRTYNGRISSCRIHVLLHSLCVDLAK
With B4, in assay [1], the binding entry is given as “binds”.

B5: Tm-2^2 NB-ARC (D481V) (domain or fragment, UniProt Q71BG9 141-492)
chain: VLLDRRRLFLHADETEIIGLDDDFNMLQAKLLNQDLHYGVVSIVGMPGLGKTTLAKKLYRLIRDQFECSGLVYVSQQPRASEILLDIAKQIGLTEQKMKENLEDNLRSLLKIKRYVILLDDIWDVEIWDDLKLVLPECDSKVGSRMIITSRNSNVGRYIGGESSLHALQPLESEKSFELFTKKIFNFDDNNSWANASPDLVNIGRNIVGRCGGIPLAIVVTAGMLRARERTEHAWNRVLESMGHKVQDGCAKVLALSYNDLPIASRPCFLYFGLYPEDHEIRAFDLINMWIAEKFIVVNSGNRREAEDLAEDVLNDLVSRNLIQLAKRTYNGRISSCRIHVLLHSLCVDLAK
For B5, the binding result in assay [2] is listed as “binds”.

B6: Tm-2^2 NB-ARC (D481V, L233A) (domain or fragment, UniProt Q71BG9 141-492)
chain: VLLDRRRLFLHADETEIIGLDDDFNMLQAKLLNQDLHYGVVSIVGMPGLGKTTLAKKLYRLIRDQFECSGLVYVSQQPRASEILLDIAKQIGATEQKMKENLEDNLRSLLKIKRYVILLDDIWDVEIWDDLKLVLPECDSKVGSRMIITSRNSNVGRYIGGESSLHALQPLESEKSFELFTKKIFNFDDNNSWANASPDLVNIGRNIVGRCGGIPLAIVVTAGMLRARERTEHAWNRVLESMGHKVQDGCAKVLALSYNDLPIASRPCFLYFGLYPEDHEIRAFDLINMWIAEKFIVVNSGNRREAEDLAEDVLNDLVSRNLIQLAKRTYNGRISSCRIHVLLHSLCVDLAK
Turning to B6, the binding entry in assay [3] is recorded as “binds”.

B7: Tm-2^2 NB-ARC (D481V, L246A) (domain or fragment, UniProt Q71BG9 141-492)
chain: VLLDRRRLFLHADETEIIGLDDDFNMLQAKLLNQDLHYGVVSIVGMPGLGKTTLAKKLYRLIRDQFECSGLVYVSQQPRASEILLDIAKQIGLTEQKMKENLEDNARSLLKIKRYVILLDDIWDVEIWDDLKLVLPECDSKVGSRMIITSRNSNVGRYIGGESSLHALQPLESEKSFELFTKKIFNFDDNNSWANASPDLVNIGRNIVGRCGGIPLAIVVTAGMLRARERTEHAWNRVLESMGHKVQDGCAKVLALSYNDLPIASRPCFLYFGLYPEDHEIRAFDLINMWIAEKFIVVNSGNRREAEDLAEDVLNDLVSRNLIQLAKRTYNGRISSCRIHVLLHSLCVDLAK
Turning to B7, the binding result in assay [4] is on record as “binds”.

B8: Tm-2^2 NB-ARC (D481V, L242A) (domain or fragment, UniProt Q71BG9 141-492)
chain: VLLDRRRLFLHADETEIIGLDDDFNMLQAKLLNQDLHYGVVSIVGMPGLGKTTLAKKLYRLIRDQFECSGLVYVSQQPRASEILLDIAKQIGLTEQKMKENAEDNLRSLLKIKRYVILLDDIWDVEIWDDLKLVLPECDSKVGSRMIITSRNSNVGRYIGGESSLHALQPLESEKSFELFTKKIFNFDDNNSWANASPDLVNIGRNIVGRCGGIPLAIVVTAGMLRARERTEHAWNRVLESMGHKVQDGCAKVLALSYNDLPIASRPCFLYFGLYPEDHEIRAFDLINMWIAEKFIVVNSGNRREAEDLAEDVLNDLVSRNLIQLAKRTYNGRISSCRIHVLLHSLCVDLAK
Regarding B8, the binding result in assay [5] was “binds”.

These data come from publication PMC7205312.
